Hit rate of the full screen: of about 1,300 compounds, about 270 (21%) were called active.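 The calls were made as follows: active = dose-dependent rise or fall in viability, either side of zero, with half-maximal concentration at or below a set limit; inconclusive = flat curve at 30 to 70% viability loss, or poor fit; inactive = flat within 30% either way, or potency beyond limit.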 The list shows a part of the results. Potency and affinity values are given separately.
Assay: A375 melanoma cell viability reduction, dose response, counter-screen for MITF modulator project, cherry-pick samples, set 2 (AID 540335);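 also: A375 human melanoma cells which do not depend on MITF; 0% = median of neutral control wells and 100% = double that signal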
Details: CellTiter-Glo ATP luminescence, 24 h; at 35 µM (top of the series)

Row | Compound | activity change, negative = decreased viability
1 | FC(F)(F)Oc1ccc(-c2cn3cccnc3n2)cc1 | inactive: 2.8%
2 | N=c1n(CC(=O)c2ccc([N+](=O)[O-])cc2)c2ccccc2n1Cc1ccccc1Cl | inactive: -48.1%
3 | Cc1nc2ccccc2n1/N=C/c1ccc([N+](=O)[O-])s1 | inactive: -9.11%
4 | CC1(C)CC(=O)C=C(NC2=CC3OC(c4ccccc4)OCC3OC2=O)C1 (stereo unspecified) | inactive: 7.2%
5 | COc1cc2c(c(OC)c1OC)-c1ccc(OC)c(=O)cc1C(NC(C)=O)CC2 (stereo unspecified) | inactive: 15.7%
6 | O=C(NC1CCCCC1)C(c1cccnc1)N(C(=O)CCl)c1cccc(Cl)c1 (stereo unspecified) | inactive: -17%
7 | O=c1nc(N/N=C/c2ccccn2)cn[nH]1 | inactive: -38.7%
8 | Cc1ccc(OCC(=O)Nc2ccccc2F)cc1 | inactive: 9.43%
9 | Cc1ccc(-c2cc3onc(-c4ccccc4)c3c(=O)n2C)cc1 | inactive: -12.6%
10 | COc1cccc(/C=C/C(=O)c2ccc3c(c2)OCCO3)c1OC | inactive: -0.491%
11 | CC(=O)NC1=C(N(C)C2CCS(=O)(=O)C2)C(=O)c2ccccc2C1=O (stereo unspecified) | inactive: -28.4%
12 | O=c1c(Cl)c2oc3ccccc3nc-2c2ccccc12 | inactive: -8.83%
13 | O=C(Nc1cccc(S(=O)(=O)N2CCCCC2)c1)c1ccc([N+](=O)[O-])o1 | inactive: -10.1%
14 | COc1ccc(-c2nc(-c3ccccc3OC)no2)cc1OC | inactive: 1.79%
15 | COc1ccc(C(=O)NCC(=O)c2ccccc2)cc1 | inactive: -5.61%
16 | O=C(/C=C/c1ccc2c(c1)OCCO2)c1ccccc1 | inactive: -9.23%
17 | O=C(/C=C/NNC(=O)c1ccccc1)c1ccc([N+](=O)[O-])cc1 | inactive: -38.3%
18 | Cc1c(Cl)c([N+](=O)[O-])nn1Cc1ccc(C(=O)N/N=C\c2cc(Cl)ccc2O)o1 | inactive: -24.9%
19 | COc1ccc(C(=O)/C=C/C(=O)N(CC(=O)NC2CCCCC2)Cc2ccc(F)cc2)c(O)c1 | inactive: -9.41%
20 | CC(=O)Nc1ccc(S(=O)(=O)N2CCn3cccc3C2C)cc1 (stereo unspecified) | inactive: 3.9%
21 | O=C(NC1=NCCS1)c1ccc(Cl)c(Cl)c1 | inactive: -3.52%
22 | COc1c(C)cccc1C(=O)Nc1ccc(N2CCN(S(C)(=O)=O)CC2)cc1 | inactive: 9.28%
23 | N/C(=N\OC(=O)c1ccccc1)c1ccccn1 | inactive: -22.6%
24 | Cc1ccccc1C(=O)O/N=C(\N)c1ccc([N+](=O)[O-])cc1 | inactive: 10.1%

Row | Compound | activity change, negative = decreased viability
25 | COCC(C)Nc1ncnc2c1cnn2-c1ccc(Cl)cc1 (stereo unspecified) | inactive: 5.28%
26 | COc1cccc(/C=N/NC(=O)CN2CC(c3ccccc3)CC2=O)c1OC (stereo unspecified) | inactive: 13.7%
27 | O=C(N/N=C/C(Cl)=C\c1ccccc1)c1cccs1 | inactive: -9.05%
28 | O=C(Cn1ncc(Cl)c(Cl)c1=O)NCC1CCCCC1 | inactive: -26.7%
29 | O=C(NC1=NCCS1)C1COc2ccccc2O1 (stereo unspecified) | inactive: -22.8%
30 | O=C(Cc1ccccc1)Nc1ccc(NC(=O)c2ccco2)nc1 | inactive: -4.08%
31 | CCOC(=O)c1ccc(NC(=O)c2ccc(C)c(S(=O)(=O)N3CCOCC3)c2)cc1 | inactive: -15.2%
32 | O=C(O)c1cccc(N/N=C/c2ccc(OC(F)(F)F)cc2)c1 | inactive: 14.9%
33 | CCOc1cc(/C=N/Nc2cccc(C(=O)O)c2)ccc1OC(=O)c1ccccc1 | inactive: 14.3%
34 | CCCOc1ccc(C(=O)Nc2ccc3c(c2)OCCO3)cc1 | inactive: 0.175%
35 | O=C(Nc1ccc(F)cc1F)c1cc2ccccc2oc1=O | inactive: -5.16%
36 | COc1cccc(C(=O)Oc2c(CN3CCOCC3)cc(Cl)c3cccnc23)c1 | inactive: -37.8%
37 | COc1cc(OC)cc(C(=O)Nc2ccc3c(c2)OCCO3)c1 | inactive: -32.1%
38 | O=C(CCCCC(=O)NN=Cc1ccccc1O)NN=Cc1ccccc1O | inactive: -2.24%
39 | CCN1CCN(c2ccc(S(=O)(=O)N3CCCCC3)cc2NC(=O)/C=C/c2cccc(OC)c2OC)CC1 | inactive: -14.7%
40 | CC(/C=C1\SC(=O)N(CCCC(=O)O)C1=O)=C\c1ccccc1 | inactive: -0.65%
41 | CC1(C)Cc2c(sc(NC(=O)Nc3ccccc3)c2C(N)=O)CO1 | inactive: 5.17%
42 | CS(=O)(=O)c1ccc2nc(NC(=O)c3ccccc3Br)sc2c1 | inactive: -3.48%
43 | Cc1cccc(NC(=O)c2ccc([N+](=O)[O-])o2)c1C | inactive: -10.1%
44 | C=C1C(=O)O[C@@]23[C@H]1CC[C@@H](C)[C@@H]2CC[C@@]1(C)O[C@@H]31 | inactive: 2.09%
45 | O=C(Nc1ccccc1)C1Cc2ccccc2CN1C(=O)c1ccco1 (stereo unspecified) | inactive: -1.41%
46 | CCN1CCCC1CNC(=O)c1ccc2c(c1)NC(=O)/C(=C\c1ccc(OC)c(OC)c1)S2 (stereo unspecified) | inactive: 0.004%
47 | COC(=O)c1ccc(-n2c(C)cc(C(=O)CCl)c2C)cc1 | inactive: 2.38%
48 | CCC(=O)NCCc1nc2cc(NC(=O)c3cccc([N+](=O)[O-])c3)ccc2n1C | inactive: 1.21%

Row | Compound | activity change, negative = decreased viability
49 | O=C(O)c1ccc(C(=O)Nc2ccc(F)cc2)cc1 | inactive: -13.5%
50 | Oc1c(Cl)cc(Cl)cc1/C=N/Nc1ncc(Br)cn1 | inactive: -35.9%
51 | CCOC(=O)c1sc(-c2ccccc2)cc1N | inactive: -1.43%
52 | COc1ccccc1N1CCN(/N=C/c2ccc([N+](=O)[O-])cc2)CC1 | inactive: -11.3%
53 | CC(=O)Nc1cccc(-c2nnc(-c3ccccc3)o2)c1 | inactive: 11.6%
54 | Cc1nc(NC(=O)/C=C/c2ccccc2)n[nH]1 | inactive: -26.7%
55 | Cc1ccc(-n2nnnc2CNC(=O)c2ccc([N+](=O)[O-])o2)cc1C | inactive: 9.47%
56 | Cc1ccc(-n2ncc3c(SCC(N)=O)ncnc32)cc1C | inactive: 8.68%
57 | CCOc1cc(/C=C(/C#N)c2ccc(Cl)cc2)cc(Cl)c1OCC(=O)O | inactive: -0.225%
58 | CC(=NNc1nc2ccccc2o1)c1cc2ccccc2cn1 | inactive: -38.7%
59 | CCC(=O)OCCNc1cc(Sc2nccn2C)c2nonc2c1[N+](=O)[O-] | inactive: 9.58%
60 | COc1cc(-c2nnc(-c3ccco3)o2)ccc1OCc1ccccc1 | inactive: 4.59%
61 | O=C1c2ccccc2S(=O)(=O)N1Cc1nc2ccccc2s1 | inactive: -1.65%
62 | CC(=O)Oc1ccc(C)cc1-n1nc2ccccc2n1 | inactive: -15.9%
63 | O=C(NCc1csc(-c2cccs2)n1)C1CCC1 | inactive: 12.6%
64 | COc1cc(NC(=O)c2ccc([N+](=O)[O-])o2)ccc1NC(=O)c1cccs1 | inactive: -28.9%
65 | COc1ccc(C(=O)/C=C/C(=O)N(CC(=O)NC2CCCCC2)Cc2cccs2)c(O)c1 | inactive: -2.13%
66 | C/C(=N\NC(=O)C(c1ccccc1)c1ccccc1)c1ccccn1 | inactive: -34.8%
67 | c1cnc(SCCOc2ccc3c(c2)CCC3)nc1 | inactive: 1.24%
68 | O=C(c1cc2ccccc2oc1=O)N1CCN(c2ncccn2)CC1 | inactive: -20.7%
69 | O=C(CCNc1ccccc1)c1ccc2c(c1)OCO2 | inactive: 10.6%
70 | COc1ccc2oc(=O)c(C(=O)Nc3ccccc3C)cc2c1 | inactive: 7.75%
71 | O=C(c1ccc(F)cc1)N1CCC(c2ccccc2)C1 (stereo unspecified) | inactive: 7.1%
72 | O=C(N/N=C/c1cccc2cccnc12)c1ccccc1O | inactive: -38%

Part of the list above in order of heavy-atom count, rising:
Row | Compound | activity change, negative = decreased viability
54 | Cc1nc(NC(=O)/C=C/c2ccccc2)n[nH]1 | inactive: -26.7%
49 | O=C(O)c1ccc(C(=O)Nc2ccc(F)cc2)cc1 | inactive: -13.5%
52 | COc1ccccc1N1CCN(/N=C/c2ccc([N+](=O)[O-])cc2)CC1 | inactive: -11.3%

Next part.

Row | Compound | activity change, negative = decreased viability
73 | O=C(O)c1ccc(N/N=C/c2ccc(OC(=O)c3cccc(Cl)c3)cc2)cc1 | inactive: 1.31%
74 | O=C(Nc1nc2cc3c(cc2s1)OCO3)C1=COCCO1 | inactive: -19.3%
75 | CCCCOC(=O)c1[nH]c(C)c(C(=O)OC)c1C | inactive: 11.2%
76 | O=C(CSc1nc2ccccc2[nH]1)c1ccc2c(c1)OCO2 | inactive: 5.51%
77 | COc1cccc(NC(=O)c2cnn(-c3ccccc3)c2C)c1 | inactive: -1.05%
78 | O=C(Nc1ccc(-c2nc3ncccc3o2)cc1)c1ccc([N+](=O)[O-])o1 | inactive: -6.72%
79 | CN(c1cccc(NC(=O)COc2ccc(Cl)cc2Cl)c1)S(C)(=O)=O | inactive: -2.24%
80 | Cc1cc(C(C)(C)C)cc(C)c1Cn1c2[n+](c3ccc(C(F)(F)F)cc31)CCCCC2 | inactive: -33.6%
81 | CC(C)(C)C(=O)Cn1ncc(Cl)c(Cl)c1=O | inactive: 55.4%
82 | C=CCSC(=S)NC1CCS(=O)(=O)C1 (stereo unspecified) | inactive: -5.74%
83 | Cn1cc(C(=O)CCl)c2ccccc21 | inactive: -8.83%
84 | CN1CCN(c2ccc(NC(=S)NC(=O)c3cccc4ccccc34)cc2)CC1 | inactive: -38.8%
85 | O=C(NC1CCCCC1)C(c1cccnc1)N(C(=O)CCl)c1ccc(F)cc1 (stereo unspecified) | inactive: -9.62%
86 | Cc1cc(C(=O)CN2C(=O)c3ccccc3S2(=O)=O)c(C)n1-c1ccccc1 | inactive: 6.79%
87 | CC(C)(C)NC(=O)CCN(/N=C/c1ccc([N+](=O)[O-])o1)C1=NS(=O)(=O)c2ccccc21 | inactive: -15.5%
88 | COCCn1c(C)cc(C(=O)CSc2nnc(C)s2)c1C | inactive: -3.23%
89 | Fc1ccc(-c2nnc(-c3ccc(F)cc3)o2)cc1 | inactive: -2.86%
90 | O=C(Nc1ccc(N2CCOCC2)cc1)c1cnsn1 | inactive: 1.29%
91 | Cc1cc(C)cc(OCC(=O)N/N=C/c2ccc([N+](=O)[O-])o2)c1 | inactive: -0.821%
92 | CC(O)CNC(=O)C1CCN(Cc2ccc(OCc3ccccc3)cc2)CC1 (stereo unspecified) | inactive: 1.88%
93 | O=C(c1cc2ccccc2oc1=O)N(Cc1ccccc1)C1CCS(=O)(=O)C1 (stereo unspecified) | inactive: 1.48%
94 | O=C(CNc1cccc2ccccc12)N/N=C/c1ccc([N+](=O)[O-])o1 | inactive: -18.9%
95 | Nc1c(-c2ccc(Cl)cc2)nnn1-c1ccccc1 | inactive: 11.1%
96 | [2H]C(CCOS(N)(=O)=O)c1ccc(C(C)(C)C)cc1 (stereo unspecified) | inactive: -8.41%
